# At least one structure is not confirmed: it was looked up by name or label, or the drawing left a doubt.
# System: duck hepatitis B virus (DHBV)
# Assay: In vivo anti-DHBV activity in DHBV-infected ducklings (serum DHBV DNA by real-time PCR)
# Design: species or system Cherry Valley ducks
structure (smiles),measurement,setting,value
Nc1ccn([C@@H]2CS[C@H](CO)O2)c(=O)n1 [Lamivudine],Inhibition on DHBV-DNA during the administration period,20 mg/kg (FIG. 3),strongly inhibition
same,Inhibition on DHBV-DNA during the administration period,50 mg/kg dose (FIG. 4),strongly inhibition
same,Inhibition on DHBV DNA after treatment cessation,5 days after the treatment cessation,lost
